# From PubChem BioAssay AID493014 (National Center for Advancing Translational Sciences (NCATS), 2011)
# Out of some 340,000 compounds screened, about 170 (0.05%) were called active. Inconclusive means that the source gave no clear call. Such entries were picked first, then a sample of the others. Calls come from the whole dose curve; as a rule, active = well fitted inhibition curve with a large enough effect in the signal ratio, with a control signal flat (not every such curve was filed as active); inconclusive = small, poorly fitted or top-dose-only effect, or effect the other way, or a change in a side signal; inactive = flat fitted curve, though single readings scatter; the % refers to the signal ratio. A potency beside an inconclusive call is a rough fit, not a confirmed value.
# Assay: qHTS Assay to Find Inhibitors of Chronic Active B-Cell Receptor Signaling;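 for activity change, negative = inhibition: plate controls were basal doxycycline-induced cells for no effect and cells given 10 µM MG132 for full effect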
# Conditions: ABC-DLBCL IkBa-CBG/CBR reporter, luminescence ratio (green luciferase fused to IkBa over red control in TMD8 lymphoma cells), 4 h; activity change, negative = inhibition: at 46.1 µM (top of the series)
# Method in brief: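 Cell line TMD8 (human ABC DLBCL), stably expressing tet-inducible CBG68-IkBa fusion and CBR; IMDM/0.5% FBS; cpd up to 46 uM; dox induction, 4 h, 37C/5% CO2; dual luminescence; green/red ratio; MG132 control.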
# Potency is the fitted concentration of half-maximal effect.
Structure (SMILES),"activity change, negative = inhibition",Potency
Cc1ccc(NC(=O)Nc2cccc(F)c2)nc1,inconclusive: -1.09%,–
Nc1nc(-c2ccc3c(c2)CCO3)cs1,inconclusive: 2.86%,–
CC(c1ccon1)N(C)Cc1cn(Cc2ccccc2)nc1-c1ccc2c(c1)OCO2 (centres undefined),inconclusive: -0.872%,–
CN(C)c1nc(SCc2ccc(Cl)cc2)nc2c1CCCC2,–,"inconclusive: 23.1 µM [rising, partial curve, poor fit]"
NC(=O)CCN1CCN(CCOC2Cc3cc(Cl)ccc3Sc3ccccc32)CC1 (centres undefined),inconclusive: -6%,–
C#CCOCCOCCOCCNc1nc(N2CCN(C(=O)CCCCCCCCCCNC(=O)[C@H]([C@@H](C)CC)n3cc(CCCCN=C(N)N)nn3)CC2)nc(N2CCN(C(=O)CCCCCCCCCCNC(=O)[C@H](CCCCN)n3cc(C)nn3)CC2)n1,inconclusive: 0%,–
CCc1cc(=O)oc2cc(O[C@@H]3O[C@H](CO)[C@@H](O)[C@H](O)[C@H]3O)c(Cl)cc12,inactive,–
N#Cc1nc(Nc2cccc(Cl)c2)c2ncn(C3CCCC3)c2n1,inconclusive: 7.73%,–
O=[N+]([O-])/C(=C\Nc1ccc(F)cc1F)S(=O)(=O)c1ccccc1,inconclusive: 5.85%,–
CC(NC(=O)c1c(O)c2ccccc2[nH]c1=O)c1ccccc1 (centres undefined),inconclusive: 11.4%,–
CSCCCNC(=O)c1ccccc1OC1CCN(S(C)(=O)=O)CC1,–,"inconclusive: 8.91 µM [falling, partial curve, poor fit]"
CC(C)(C)C(=O)Nc1ccc(-c2cn3cccnc3n2)cc1,inconclusive: 0.408%,–
O=C(Nc1cccc(-c2csc(Nc3ccc(Cl)cc3)n2)c1)c1cc([N+](=O)[O-])cc(C(F)(F)F)c1,inconclusive: 0.4%,–
COC(=O)c1cccc(NC(=O)/C(=C\c2ccccc2)NC(=O)c2ccccc2Cl)c1,–,"inconclusive: 35.5 µM [falling, partial curve, poor fit]"
Oc1cccc2c(NC(=S)Nc3ccc(OC(F)F)cc3)cccc12,–,"inconclusive: 29.1 µM [falling, partial curve, poor fit]"
CC(C)c1ccccc1OCC(=O)Nc1nnc(C2CC2)s1,inactive,–
COc1ccccc1CNC(=O)CN1C(=O)NC(C)(c2ccc(C(C)(C)C)cc2)C1=O (centres undefined),inconclusive: -8.84%,–
C=CCOc1ccc(CN(C)CC(O)COc2cccc3ccccc23)cc1 (centres undefined),inactive,–
CCC(CC)c1nnc(NC(=O)c2nn(C)c(=O)c3ccccc23)s1,inconclusive: 3.33%,–
Cc1cc(C(=O)OCC(=O)Nc2ccccc2C)c(C)o1,–,"inconclusive: 23.1 µM [falling, single point]"
O=C(CCc1ccccc1)Nc1ccnn1C1CCN(C/C=C/c2ccccc2)CC1,inactive,–
c1ccc(Nc2nc3ccccc3[nH]2)nc1,–,"inconclusive: 35.5 µM [falling, single point]"
CC(=O)OCC1=C(C(=O)O)N2C(=O)C(NC(=O)c3ccc(F)cc3)C2SC1 (centres undefined),inactive,–
CCN1CCCC1CNC(=O)c1cc2c(OC)cccc2[nH]1 (centres undefined),inconclusive: -3.44%,–
Cc1nc(NC(=O)CSc2nccn2C)sc1C(=O)N(C)C,inactive,–

# Looked up above:
# `O=C(CCc1ccccc1)Nc1ccnn1C1CCN(C/C=C/c2ccccc2)CC1` | activity change, negative = inhibition: inactive
# `COC(=O)c1cccc(NC(=O)/C(=C\c2ccccc2)NC(=O)c2ccccc2Cl)c1` | Potency: inconclusive: 35.5 µM [falling, partial curve, poor fit]

# Further compounds:

Structure (SMILES),"activity change, negative = inhibition",Potency
CCOC(=O)c1sc(NC(=O)COc2ccc3c(c2)OCO3)nc1C,–,"inconclusive: 2.51 µM [falling, full curve]"
Cc1cccc([C@@H]2[C@@H]3C(=O)N(Cc4ccccc4)C(=O)[C@@H]3[C@]3(Cc4ccccc4)C(=O)N(c4ccccc4)C(=O)N23)c1,inconclusive: -4.81%,–
FC(F)(F)c1ccccc1-n1c(-c2cnccn2)n[nH]c1=S,–,"inconclusive: 12.6 µM [falling, partial curve]"
O=C(/C=C/c1ccc2c(c1)OCO2)N1CCN(c2n[nH]c(=O)[nH]c2=O)CC1,inactive,–
Cc1ccc(N2CC(C(=O)NCCS(=O)(=O)N3CCN(c4ccccc4)CC3)CC2=O)cc1 (centres undefined),inconclusive: 0.139%,–
O=C(c1ccncc1)c1nccn1-c1ccccn1,inconclusive: 5.06%,–
CCOC(=O)c1c(C)n(-c2ccccc2)c2ccc(O)cc12,–,"inconclusive: 14.1 µM [falling, single point]"
COc1cccc(N(CC(=O)NCCSc2ccccn2)S(C)(=O)=O)c1,inconclusive: -24.9%,–
OC(CN1c2ccccc2Sc2ccccc21)Cn1nnc2ccccc21 (centres undefined),–,"inconclusive: 20.6 µM [falling, single point]"
COc1ccc(C2=C/C(=C\c3ccc(OC(C)=O)cc3)C(=O)O2)cc1,–,"inconclusive: 0.708 µM [falling, full curve, poor fit]"
COc1ccc(NC(=O)NNC(=O)c2ccc3ccccc3c2O)c(OC)c1,inactive,–
COCc1[nH]nc2c1C(c1ccsc1)C(C#N)=C(N)O2 (centres undefined),inconclusive: 0.093%,–
O=C(Nc1ccc2c(c1)C(=O)N(C1CCCCC1)C2=O)C1CCCO1 (centres undefined),inconclusive: -2.26%,–
O=C(NC(=S)Nc1ccc(N2CCOCC2)cc1)c1cccc([N+](=O)[O-])c1,inactive,–
CCOc1ccc(NC(=O)CN2CCC(n3cnc4cc(F)ccc43)CC2)cc1,inconclusive: 8.82%,–
O=C(CSC1=NCCN1)Nc1cccc(C(F)(F)F)c1,–,"inconclusive: 22.4 µM [falling, partial curve]"
CCCn1c(SCC(=O)Nc2nc(C)cs2)nnc1-c1cccnc1,inconclusive: -0.567%,–
COc1ccc2oc(=O)c(C(=O)NCC3CCCO3)cc2c1 (centres undefined),inconclusive: 5.09%,–
O=C1CC(N2CCC(c3nc4ccccc4o3)CC2)C(=O)N1c1ccc(Cl)c(C(F)(F)F)c1 (centres undefined),inconclusive: -0.27%,–
CC1(C)C(=O)NC(=O)N1Cc1ccccc1,inconclusive: 0.124%,–
O=C(O)CC1COc2ccccc2N1C(=O)c1ccccc1Cl (centres undefined),inactive,–
CCCCc1c(C)c2ccc(OCC(C)=O)cc2oc1=O,inconclusive: 9.1%,–
COc1cc(/C=C2\C(=N)N3N=C(C)SC3=NC2=O)cc(OC)c1OCCOc1ccccc1C,inconclusive: -0.663%,–
CCOC(=O)c1c(C)n(C)c2ccc(OC)c(NC(=O)CCN3CCSCC3)c12,–,"inconclusive: 29.1 µM [falling, single point]"
